From the supplement of paper PMC10849652
Some of the results follow.

Chains of the proteins cited; added tags and fusions are not shown. Lines headed by an entry give the natural chain unless they say otherwise; changes in a name come on top.
UniProt Q9UHY7: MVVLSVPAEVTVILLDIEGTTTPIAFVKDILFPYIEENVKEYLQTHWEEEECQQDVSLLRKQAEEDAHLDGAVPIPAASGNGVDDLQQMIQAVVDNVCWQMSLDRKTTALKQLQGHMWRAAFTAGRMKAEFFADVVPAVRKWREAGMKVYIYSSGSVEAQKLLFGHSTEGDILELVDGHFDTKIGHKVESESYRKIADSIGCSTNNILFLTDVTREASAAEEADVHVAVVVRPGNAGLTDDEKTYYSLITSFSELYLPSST
UniProt Q15029: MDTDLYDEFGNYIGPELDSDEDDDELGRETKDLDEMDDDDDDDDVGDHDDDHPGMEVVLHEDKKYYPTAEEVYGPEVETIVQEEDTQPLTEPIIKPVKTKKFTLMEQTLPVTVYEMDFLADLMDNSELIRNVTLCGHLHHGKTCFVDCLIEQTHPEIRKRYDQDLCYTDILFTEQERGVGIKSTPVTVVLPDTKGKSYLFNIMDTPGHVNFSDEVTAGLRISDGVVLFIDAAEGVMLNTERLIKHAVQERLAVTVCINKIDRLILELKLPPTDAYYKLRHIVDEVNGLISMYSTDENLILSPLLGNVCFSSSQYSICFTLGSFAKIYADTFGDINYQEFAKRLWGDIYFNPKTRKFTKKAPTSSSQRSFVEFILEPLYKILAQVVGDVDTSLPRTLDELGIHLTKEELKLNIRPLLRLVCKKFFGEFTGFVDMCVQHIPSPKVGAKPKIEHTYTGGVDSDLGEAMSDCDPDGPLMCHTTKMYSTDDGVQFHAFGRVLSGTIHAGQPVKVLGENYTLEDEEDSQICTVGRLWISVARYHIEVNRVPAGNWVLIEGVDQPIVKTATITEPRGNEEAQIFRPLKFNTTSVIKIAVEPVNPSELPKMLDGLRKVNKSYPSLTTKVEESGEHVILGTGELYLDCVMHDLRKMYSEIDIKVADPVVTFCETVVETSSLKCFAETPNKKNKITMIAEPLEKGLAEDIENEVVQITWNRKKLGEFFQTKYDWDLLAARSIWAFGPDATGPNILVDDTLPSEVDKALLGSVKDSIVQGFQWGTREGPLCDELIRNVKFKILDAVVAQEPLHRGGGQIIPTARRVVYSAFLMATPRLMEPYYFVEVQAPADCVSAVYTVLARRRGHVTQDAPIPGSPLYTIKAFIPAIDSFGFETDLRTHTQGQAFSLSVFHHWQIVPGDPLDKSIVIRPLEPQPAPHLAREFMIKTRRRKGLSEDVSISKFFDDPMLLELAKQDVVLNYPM
UniProt Q9P0I2: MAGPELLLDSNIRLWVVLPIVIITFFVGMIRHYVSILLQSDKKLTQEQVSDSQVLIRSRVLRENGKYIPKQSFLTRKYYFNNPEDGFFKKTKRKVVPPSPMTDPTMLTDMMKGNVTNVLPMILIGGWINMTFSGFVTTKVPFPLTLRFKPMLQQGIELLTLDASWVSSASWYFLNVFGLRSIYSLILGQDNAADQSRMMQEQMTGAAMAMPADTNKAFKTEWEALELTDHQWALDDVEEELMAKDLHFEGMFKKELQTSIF
UniProt Q08426: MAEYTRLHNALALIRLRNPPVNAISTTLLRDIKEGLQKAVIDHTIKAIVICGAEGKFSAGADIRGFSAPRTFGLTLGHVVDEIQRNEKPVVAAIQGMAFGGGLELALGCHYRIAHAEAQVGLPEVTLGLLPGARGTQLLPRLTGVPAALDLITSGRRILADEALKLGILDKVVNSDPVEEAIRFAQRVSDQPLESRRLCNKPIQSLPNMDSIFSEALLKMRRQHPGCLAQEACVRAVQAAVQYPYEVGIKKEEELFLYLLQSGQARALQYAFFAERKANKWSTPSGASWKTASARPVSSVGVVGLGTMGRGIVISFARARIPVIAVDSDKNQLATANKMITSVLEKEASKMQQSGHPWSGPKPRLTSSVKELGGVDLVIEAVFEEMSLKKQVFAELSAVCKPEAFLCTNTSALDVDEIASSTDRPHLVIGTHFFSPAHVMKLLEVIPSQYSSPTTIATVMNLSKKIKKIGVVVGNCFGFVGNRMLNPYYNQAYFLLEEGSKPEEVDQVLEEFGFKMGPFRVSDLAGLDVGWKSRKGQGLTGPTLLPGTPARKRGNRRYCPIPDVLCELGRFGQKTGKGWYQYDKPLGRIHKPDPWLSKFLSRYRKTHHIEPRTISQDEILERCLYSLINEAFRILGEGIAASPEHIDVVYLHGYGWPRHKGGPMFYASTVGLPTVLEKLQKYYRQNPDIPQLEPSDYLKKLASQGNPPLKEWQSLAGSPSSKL
UniProt P09104, whole entry, looked up: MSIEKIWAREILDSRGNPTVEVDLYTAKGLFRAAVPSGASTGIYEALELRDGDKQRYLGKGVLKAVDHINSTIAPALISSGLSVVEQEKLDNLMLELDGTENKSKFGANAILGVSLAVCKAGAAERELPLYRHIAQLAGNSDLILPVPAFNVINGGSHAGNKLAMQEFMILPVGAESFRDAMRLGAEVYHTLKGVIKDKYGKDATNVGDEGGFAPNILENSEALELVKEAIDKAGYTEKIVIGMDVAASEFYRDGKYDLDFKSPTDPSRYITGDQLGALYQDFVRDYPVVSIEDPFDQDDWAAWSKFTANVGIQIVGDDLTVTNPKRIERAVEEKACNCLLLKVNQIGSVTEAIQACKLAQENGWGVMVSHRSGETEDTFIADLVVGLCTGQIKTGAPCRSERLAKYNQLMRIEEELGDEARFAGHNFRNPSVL
UniProt Q14152, whole entry, looked up: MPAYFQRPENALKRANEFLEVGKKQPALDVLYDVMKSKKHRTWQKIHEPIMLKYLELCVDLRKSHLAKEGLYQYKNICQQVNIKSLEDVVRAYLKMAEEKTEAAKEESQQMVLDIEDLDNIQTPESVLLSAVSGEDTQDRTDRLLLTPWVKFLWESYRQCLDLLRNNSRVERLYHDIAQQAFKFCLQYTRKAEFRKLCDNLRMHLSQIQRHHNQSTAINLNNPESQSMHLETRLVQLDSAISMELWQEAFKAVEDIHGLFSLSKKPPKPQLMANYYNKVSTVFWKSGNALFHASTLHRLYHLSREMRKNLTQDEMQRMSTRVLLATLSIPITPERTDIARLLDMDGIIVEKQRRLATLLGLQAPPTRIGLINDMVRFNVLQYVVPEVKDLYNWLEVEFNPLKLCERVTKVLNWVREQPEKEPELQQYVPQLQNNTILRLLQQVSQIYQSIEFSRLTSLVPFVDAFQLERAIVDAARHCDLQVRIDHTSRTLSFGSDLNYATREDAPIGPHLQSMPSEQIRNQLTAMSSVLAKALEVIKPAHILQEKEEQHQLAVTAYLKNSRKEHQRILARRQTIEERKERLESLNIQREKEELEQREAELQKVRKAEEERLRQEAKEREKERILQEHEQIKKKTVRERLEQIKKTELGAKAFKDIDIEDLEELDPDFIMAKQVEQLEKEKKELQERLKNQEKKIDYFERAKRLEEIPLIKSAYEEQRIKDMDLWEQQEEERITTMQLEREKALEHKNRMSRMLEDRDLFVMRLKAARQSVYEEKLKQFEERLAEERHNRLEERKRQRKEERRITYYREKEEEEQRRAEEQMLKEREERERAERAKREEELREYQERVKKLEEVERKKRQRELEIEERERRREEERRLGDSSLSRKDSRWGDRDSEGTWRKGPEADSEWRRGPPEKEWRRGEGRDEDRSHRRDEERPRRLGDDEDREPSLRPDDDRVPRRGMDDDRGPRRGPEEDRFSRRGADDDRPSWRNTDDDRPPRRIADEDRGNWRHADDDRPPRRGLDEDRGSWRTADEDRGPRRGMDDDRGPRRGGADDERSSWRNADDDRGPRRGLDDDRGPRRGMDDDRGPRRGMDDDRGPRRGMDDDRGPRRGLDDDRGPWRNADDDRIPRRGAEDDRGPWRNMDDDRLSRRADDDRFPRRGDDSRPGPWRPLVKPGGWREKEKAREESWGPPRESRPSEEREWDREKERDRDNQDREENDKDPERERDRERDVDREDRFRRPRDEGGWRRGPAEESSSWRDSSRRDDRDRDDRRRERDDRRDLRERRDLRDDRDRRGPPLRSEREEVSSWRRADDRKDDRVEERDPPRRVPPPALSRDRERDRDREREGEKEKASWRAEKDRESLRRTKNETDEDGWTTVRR
UniProt Q9BY44: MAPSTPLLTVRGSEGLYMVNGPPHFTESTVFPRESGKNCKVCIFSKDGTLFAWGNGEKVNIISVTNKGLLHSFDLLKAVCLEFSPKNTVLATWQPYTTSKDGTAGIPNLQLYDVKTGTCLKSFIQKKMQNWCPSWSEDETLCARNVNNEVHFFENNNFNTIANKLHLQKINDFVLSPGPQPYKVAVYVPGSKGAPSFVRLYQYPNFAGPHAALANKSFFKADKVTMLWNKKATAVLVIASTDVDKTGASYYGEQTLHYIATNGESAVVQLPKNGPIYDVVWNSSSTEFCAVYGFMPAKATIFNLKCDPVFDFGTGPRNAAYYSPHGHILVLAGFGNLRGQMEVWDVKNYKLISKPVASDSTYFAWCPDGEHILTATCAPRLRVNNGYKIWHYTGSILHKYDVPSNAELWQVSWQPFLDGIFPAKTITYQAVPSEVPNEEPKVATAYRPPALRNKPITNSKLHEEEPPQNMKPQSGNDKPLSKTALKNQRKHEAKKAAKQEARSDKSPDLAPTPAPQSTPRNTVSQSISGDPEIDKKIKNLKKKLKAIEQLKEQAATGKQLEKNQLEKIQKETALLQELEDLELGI
UniProt O94919: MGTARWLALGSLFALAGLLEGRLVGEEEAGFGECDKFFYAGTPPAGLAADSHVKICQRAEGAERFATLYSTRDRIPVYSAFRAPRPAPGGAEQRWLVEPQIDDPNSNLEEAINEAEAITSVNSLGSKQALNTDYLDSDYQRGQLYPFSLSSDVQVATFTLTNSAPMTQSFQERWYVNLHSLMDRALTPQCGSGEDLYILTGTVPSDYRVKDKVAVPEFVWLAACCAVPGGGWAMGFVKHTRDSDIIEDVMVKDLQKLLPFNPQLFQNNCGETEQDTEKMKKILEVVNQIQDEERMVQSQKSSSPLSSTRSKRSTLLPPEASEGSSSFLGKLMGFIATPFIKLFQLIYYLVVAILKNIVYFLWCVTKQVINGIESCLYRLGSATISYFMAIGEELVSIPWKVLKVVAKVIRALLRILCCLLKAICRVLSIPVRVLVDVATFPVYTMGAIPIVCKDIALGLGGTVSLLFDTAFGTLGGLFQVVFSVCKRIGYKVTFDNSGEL
UniProt Q9HC35: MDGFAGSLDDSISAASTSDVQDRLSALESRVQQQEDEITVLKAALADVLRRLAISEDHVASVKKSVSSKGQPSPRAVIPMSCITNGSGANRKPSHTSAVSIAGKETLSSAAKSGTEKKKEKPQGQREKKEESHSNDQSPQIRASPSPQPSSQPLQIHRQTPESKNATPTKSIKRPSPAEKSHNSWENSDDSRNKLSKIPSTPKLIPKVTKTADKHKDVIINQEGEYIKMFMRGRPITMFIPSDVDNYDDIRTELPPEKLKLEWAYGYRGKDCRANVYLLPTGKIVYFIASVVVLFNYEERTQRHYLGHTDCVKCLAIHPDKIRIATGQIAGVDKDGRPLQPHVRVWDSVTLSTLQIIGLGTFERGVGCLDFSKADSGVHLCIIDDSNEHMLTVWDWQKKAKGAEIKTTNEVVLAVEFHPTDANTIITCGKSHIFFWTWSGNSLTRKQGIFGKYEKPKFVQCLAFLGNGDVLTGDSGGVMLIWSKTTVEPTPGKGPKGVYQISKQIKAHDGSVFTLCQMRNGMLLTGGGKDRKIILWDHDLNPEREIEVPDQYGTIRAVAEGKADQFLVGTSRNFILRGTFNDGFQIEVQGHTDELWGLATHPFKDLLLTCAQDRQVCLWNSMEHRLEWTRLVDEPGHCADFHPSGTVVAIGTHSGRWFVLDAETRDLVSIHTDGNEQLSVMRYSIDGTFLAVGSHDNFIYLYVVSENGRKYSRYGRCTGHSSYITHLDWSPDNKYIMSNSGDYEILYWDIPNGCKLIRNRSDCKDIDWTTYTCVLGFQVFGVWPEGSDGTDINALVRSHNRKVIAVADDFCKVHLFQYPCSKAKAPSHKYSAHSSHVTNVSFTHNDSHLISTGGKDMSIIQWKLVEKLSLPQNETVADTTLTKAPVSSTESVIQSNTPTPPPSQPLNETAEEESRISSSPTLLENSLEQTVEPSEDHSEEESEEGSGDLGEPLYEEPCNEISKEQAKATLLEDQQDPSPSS
UniProt P41567, whole entry, looked up: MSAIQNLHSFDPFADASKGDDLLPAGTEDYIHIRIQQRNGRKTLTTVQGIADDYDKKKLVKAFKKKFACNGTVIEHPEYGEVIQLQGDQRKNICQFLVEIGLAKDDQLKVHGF
UniProt Q13542: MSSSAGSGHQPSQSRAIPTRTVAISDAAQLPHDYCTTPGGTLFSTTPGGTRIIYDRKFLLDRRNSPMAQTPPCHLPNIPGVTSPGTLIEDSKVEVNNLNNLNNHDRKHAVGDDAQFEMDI
UniProt O43402: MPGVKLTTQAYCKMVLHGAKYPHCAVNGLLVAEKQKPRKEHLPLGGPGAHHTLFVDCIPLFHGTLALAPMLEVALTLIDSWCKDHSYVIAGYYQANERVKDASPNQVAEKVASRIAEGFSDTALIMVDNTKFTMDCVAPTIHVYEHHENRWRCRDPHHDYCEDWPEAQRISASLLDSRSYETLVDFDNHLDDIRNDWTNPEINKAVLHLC

Legend:
Experiment in all cases: log2 fold change, soluble protein after heating vs DMSO (PISA); higher = thermal stabilisation; K562 cells, 10 uM, 30 min; active = over 0.2 and 3.5 SD of the protein, either way, in both replicates (recomputed)
[1] = compound: CN1CCN(CCOc2cc(OC3CCOCC3)c3c(Nc4c(Cl)ccc5c4OCO5)ncnc3c2)CC1 [saracatinib]
Summary of the method: (§1)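 For each measurement, 10 μM compound was applied for 30 min to K562 cells at 2×10^6 cells/mL. Aliquots were heated for 3 min across 48°C-58°C, pooled, and extracted in PBS with 0.5% NP-40 at 4°C; the supernatant after 21,000xg for 90 min was soluble protein. This was quantified by TMTpro 16plex LC-MS/MS with channel sums equalised, and thermal stability was reported relative to control samples from duplicates, on a log2 fold-change scale.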

[2] = compound: CN1CCN(c2nc(C3=C(c4c[nH]c5ccccc45)C(=O)NC3=O)c3ccccc3n2)CC1 [sotrastaurin]
Summary of the method: as §1

[3] = compound: CN1CC[C@H](c2c(O)cc(O)c3c(=O)cc(-c4ccccc4Cl)oc23)[C@H](O)C1 [alvocidib]
Summary of the method: as §1

[4] = compound: CN1CCc2c(c3ccccc3n2Cc2ccc(C(=O)NO)cc2)C1 [Tubastatin A]
Summary of the method: as §1

[5] = compound: CNC(=O)C1=CC=CC=C1NC2=NC(=NC=C2Cl)NC3=C(C=C(C=C3)N4CCOCC4)OC
Summary of the method: as §1

[6] = compound: CNC(=O)c1ccc(Nc2ncc(C(F)(F)F)c(NCc3nccnc3N(C)S(C)(=O)=O)n2)cc1 [defactinib]
Summary of the method: as §1

[7] = compound: CNCc1ccc(-c2[nH]c3cc(F)cc4c3c2CCNC4=O)cc1 [rucaparib]
Summary of the method: as §1

[8] = compound: CNc1nc(-c2ccc3c(N)n[nH]c3c2)cc(N2C[C@@H](C(=O)NC3CCCCC3)CC[C@H]2C)n1
Summary of the method: as §1

[9] = compound: COC(=O)N[C@@H](C)CNc1nccc(-c2cn(C(C)C)nc2-c2cc(Cl)cc(NS(C)(=O)=O)c2F)n1 [encorafenib]
Summary of the method: as §1

[10] = compound: COC(=O)[C@H](CCSC)NC(=O)C1=C(C=C(C=C1)NC[C@H](CS)N)C2=CC=CC=C2
Summary of the method: as §1

[11] = compound: COC1=CC=C(C=C1)CN2C=CC3=C2C=C(C=C3)C(=O)NO
Summary of the method: as §1

[12] = compound: CON(C)C(=O)N1N=C(c2cc(F)ccc2F)S[C@@]1(CCCN)c1ccccc1 [filanesib]
Summary of the method: as §1

[13] = compound: CO[C@H]1C[C@@H]2CC[C@@H](C)[C@@](O)(O2)C(=O)C(=O)N2CCCC[C@H]2C(=O)O[C@H]([C@H](C)C[C@@H]2CC[C@H](n3cnnn3)[C@H](OC)C2)CC(=O)[C@H](C)/C=C(\C)[C@@H](O)[C@@H](OC)C(=O)[C@H](C)C[C@H](C)/C=C/C=C/C=C/1C [zotarolimus]
Summary of the method: as §1

[14] = compound: COc1cc(C(=O)O)ccc1NC(=O)[C@@H]1N[C@@H](CC(C)(C)C)[C@](C#N)(c2ccc(Cl)cc2F)[C@H]1c1cccc(Cl)c1F [idasanutlin]
Summary of the method: as §1

[15] = compound: COc1cc(Nc2ncc3c(n2)-c2ccc(Cl)cc2C(c2c(F)cccc2OC)=NC3)ccc1C(=O)O [alisertib]
Summary of the method: as §1

[16] = compound: COc1cc2nc(-c3cc(F)ccc3O)nc(N[C@@H]3CNC[C@H]3C(C)(C)O)c2cc1OC
Summary of the method: as §1

[17] = compound: COc1cc2ncnc(Nc3ccc(F)c(Cl)c3)c2cc1OCCCN1CCOCC1 [gefitinib]
Summary of the method: as §1

[18] = compound: COc1cccc2cc(-c3nc([C@H]4CC[C@H](C(=O)O)CC4)n4ncnc(N)c34)[nH]c12
Summary of the method: as §1

[19] = compound: CS(=O)(=O)CCNCc1ccc(-c2ccc3ncnc(Nc4ccc(OCc5cccc(F)c5)c(Cl)c4)c3c2)o1 [lapatinib]
Summary of the method: as §1

[20] = compound: CS(=O)(=O)N1CCN(Cc2cc3nc(-c4cccc5[nH]ncc45)nc(N4CCOCC4)c3s2)CC1 [pictilisib]
Summary of the method: as §1

Measured: log2 fold change

ENOPH1 (UniProt Q9UHY7)
inactive: [1] 0.001 | [2] -0.099 | [3] -0.163 | [4] 0.127 | [5] 0.077 | [6] -0.093 | [7] 0.014 | [8] 0.059 | [9] 0 | [10] -0.063 | [11] 0.072 | [12] -0.047 | [13] 0.057 | [14] -0.058 | [15] -0.018 | [16] 0.047 | [17] 0.003 | [18] -0.026 | [19] 0.04 | [20] 0.11

EFTUD2 (UniProt Q15029)
inactive: [1] 0.066 | [2] 0.019 | [3] 0.058 | [4] -0.041 | [5] -0.029 | [6] 0.032 | [7] -0.035 | [8] -0.041 | [9] -0.019 | [10] 0.045 | [11] 0.005 | [12] 0.008 | [13] -0.022 | [14] 0.017 | [15] -0.078 | [16] -0.04 | [17] -0.016 | [18] 0.066 | [19] 0.043 | [20] -0.037

EIF2S1 (UniProt P05198)
inactive: [1] -0.024 | [2] 0.044 | [3] 0.061 | [4] 0.001 | [5] -0.022 | [6] 0.103 | [7] 0.112 | [8] 0.012 | [9] 0.032 | [10] 0.02 | [11] -0.025 | [12] 0.145 | [13] 0.009 | [14] 0.035 | [15] -0.079 | [16] 0.06 | [17] -0.024 | [18] -0.093 | [19] -0.023 | [20] -0.049

Two neighbouring entries already listed, quoted:
EFTUD2 (UniProt Q15029)
inactive: [1] 0.066 | [2] 0.019 | [3] 0.058 | [4] -0.041 | [5] -0.029 | [6] 0.032 | [7] -0.035 | [8] -0.041 | [9] -0.019 | [10] 0.045 | [11] 0.005 | [12] 0.008 | [13] -0.022 | [14] 0.017 | [15] -0.078 | [16] -0.04 | [17] -0.016 | [18] 0.066 | [19] 0.043 | [20] -0.037

EIF2S1 (UniProt P05198)
inactive: [1] -0.024 | [2] 0.044 | [3] 0.061 | [4] 0.001 | [5] -0.022 | [6] 0.103 | [7] 0.112 | [8] 0.012 | [9] 0.032 | [10] 0.02 | [11] -0.025 | [12] 0.145 | [13] 0.009 | [14] 0.035 | [15] -0.079 | [16] 0.06 | [17] -0.024 | [18] -0.093 | [19] -0.023 | [20] -0.049

More records follow:

EMC3 (UniProt Q9P0I2)
inactive: [1] -0.004 | [2] 0.016 | [3] -0.04 | [4] 0.002 | [5] 0.002 | [6] -0.057 | [7] -0.023 | [8] -0.016 | [9] 0.008 | [10] -0.019 | [11] -0.068 | [12] -0.065 | [13] 0.022 | [14] -0.063 | [15] -0.026 | [16] 0.082 | [17] 0.032 | [18] 0.034 | [19] -0.002 | [20] -0.016

EIF2B1 (UniProt Q14232)
inactive: [1] 0.026 | [2] 0.016 | [3] -0.028 | [4] -0.02 | [5] 0.014 | [6] 0.002 | [7] 0.003 | [8] 0.002 | [9] -0.002 | [10] 0.002 | [11] 0.069 | [12] -0.068 | [13] 0.023 | [14] -0.016 | [15] -0.147 | [16] -0.015 | [17] -0.031 | [18] -0.018 | [19] -0.006 | [20] 0.03

EHHADH (UniProt Q08426)
inactive: [1] -0.008 | [2] 0.045 | [3] -0.003 | [4] 0.042 | [5] -0.018 | [6] -0.037 | [7] 0.017 | [8] -0.011 | [9] 0.032 | [10] 0.022 | [11] -0.035 | [12] -0.012 | [13] -0.001 | [14] -0.027 | [15] -0.021 | [16] 0.093 | [17] 0.019 | [18] 0.001 | [19] -0.024 | [20] 0.002

ENO2 (UniProt P09104)
inactive: [1] 0.052 | [2] 0.041 | [3] -0.017 | [4] -0.008 | [5] -0.066 | [6] -0.002 | [7] 0.011 | [8] -0.031 | [9] -0.023 | [10] 0.013 | [11] 0.043 | [12] -0.026 | [13] -0.055 | [14] -0.001 | [15] -0.056 | [16] -0.02 | [17] -0.01 | [18] 0.028 | [19] 0.007 | [20] 0.013

EIF3A (UniProt Q14152)
inactive: [1] -0.128 | [2] -0.206 | [3] -0.032 | [4] 0.092 | [5] 0.002 | [6] -0.041 | [7] 0.192 | [8] 0.044 | [9] 0.12 | [10] -0.106 | [11] 0.024 | [12] 0.047 | [13] 0.055 | [14] 0.009 | [15] -0.067 | [16] 0.029 | [17] 0.025 | [18] -0.212 | [19] -0.005 | [20] -0.016

EIF2A (UniProt Q9BY44)
inactive: [1] -0.032 | [2] -0.029 | [3] 0.074 | [4] 0.024 | [5] 0.045 | [6] 0.08 | [7] 0.09 | [8] 0.018 | [9] 0.033 | [10] 0.022 | [11] 0.052 | [12] 0.041 | [13] 0.013 | [14] 0.026 | [15] -0.071 | [16] 0.007 | [17] -0.016 | [18] -0.137 | [19] 0.055 | [20] -0.059

ENDOD1 (UniProt O94919)
inactive: [1] 0.039 | [2] 0.042 | [3] 0.049 | [4] -0.05 | [5] -0.014 | [6] -0.029 | [7] 0.053 | [8] -0.104 | [9] -0.034 | [10] 0.035 | [11] -0.009 | [12] 0.012 | [13] -0.076 | [14] -0.007 | [15] 0.042 | [16] 0.023 | [17] 0.023 | [18] 0.091 | [19] -0.019 | [20] 0.06

EML4 (UniProt Q9HC35)
inactive: [1] -0.08 | [2] -0.141 | [3] 0.112 | [4] 0.056 | [5] 0.028 | [6] 0.131 | [7] 0.217 | [8] 0.155 | [9] 0.133 | [10] -0.091 | [11] 0.046 | [12] 0.079 | [13] 0.004 | [14] 0.05 | [15] 0.041 | [16] 0.125 | [17] -0.001 | [18] -0.141 | [19] -0.007 | [20] -0.004

EHD4 (UniProt Q9H223)
inactive: [1] 0 | [2] 0.049 | [3] 0.011 | [4] -0.036 | [5] -0.022 | [6] -0.058 | [7] -0.029 | [8] -0.072 | [9] -0.005 | [10] -0.006 | [11] -0.038 | [12] -0.062 | [13] 0.011 | [14] -0.099 | [15] -0.04 | [16] 0.035 | [17] -0.003 | [18] 0.01 | [19] -0.041 | [20] 0.026

EIF1 (UniProt P41567)
inactive: [1] 0.103 | [2] 0.102 | [3] 0.048 | [4] -0.003 | [5] 0.001 | [6] 0.051 | [7] -0.035 | [8] -0.016 | [9] 0.044 | [10] 0.103 | [11] -0.067 | [12] 0.019 | [13] 0.014 | [14] 0.029 | [15] -0.021 | [16] 0.025 | [17] -0.06 | [18] 0.011 | [19] -0.067 | [20] -0.028

EIF4EBP2 (UniProt Q13542)
inactive: [1] -0.045 | [2] -0.019 | [3] -0.081 | [4] 0.128 | [5] 0.014 | [6] 0.065 | [7] -0.018 | [8] -0.108 | [9] -0.057 | [10] 0.153 | [11] -0.063 | [12] 0.05 | [13] -0.167 | [14] -0.01 | [15] 0.016 | [16] -0.15 | [17] 0.066 | [18] 0.204 | [19] -0.1 | [20] 0.035

EMC8 (UniProt O43402)
inactive: [1] 0.008 | [2] -0.052 | [3] -0.022 | [4] -0.007 | [5] 0.03 | [6] -0.041 | [7] 0.051 | [8] -0.071 | [9] -0.018 | [10] -0.001 | [11] -0.025 | [12] -0.061 | [13] -0.012 | [14] -0.028 | [15] 0.021 | [16] 0.022 | [17] 0.005 | [18] 0.014 | [19] 0.013 | [20] 0.004

ELOF1 (UniProt P60002)
inactive: [1] 0.094 | [2] -0.022 | [3] 0.06 | [4] 0.012 | [5] 0.021 | [6] 0.225 | [7] 0.12 | [8] -0.123 | [9] -0.036 | [10] -0.031 | [11] 0.169 | [12] -0.021 | [13] 0.018 | [14] -0.009 | [15] 0.108 | [16] -0.007 | [17] -0.039 | [18] -0.147 | [19] 0.014 | [20] -0.276
